Measured values from patent publication US10159726B2, “Peptides, combination of peptides and scaffolds for use in immunotherapeutic treatment of various cancers” (Immatics Biotechnologies GmbH, priority 2015, dated 2018).
For some assays here: For expression read-outs the peptide stands for its source gene, whose mRNA was measured; the gene is not named for every peptide.

What was measured:
[1] = tested on: source genes of selected peptides; test: Expression profiling of source genes by in-house RNAseq, tumor vs normal tissues (target coverage); parameters: species or system human; conditions: for Target coverage, over-expression of source gene, AML: AML (N = 7); for Target coverage, over-expression of source gene, AML / Target coverage, over-expression of source gene, BRCA / Target coverage, over-expression of source gene, CLL / Target coverage, over-expression of source gene, CRC / Target coverage, over-expression of source gene, GB / Target coverage, over-expression of source gene, HCC / Target coverage, over-expression of source gene, OC / Target coverage, over-expression of source gene, OSCAR / Target coverage, over-expression of source gene, PC / Target coverage, over-expression of source gene, RCC / Target coverage, over-expression of source gene, SCLC / Target coverage, over-expression of source gene, pNSCLC: in-house RNASeq; for Target coverage, over-expression of source gene, BRCA: BRCA (N = 10); for Target coverage, over-expression of source gene, CLL: CLL (N = 10); for Target coverage, over-expression of source gene, CRC: CRC (N = 20); for Target coverage, over-expression of source gene, GB: GB (N = 24); for Target coverage, over-expression of source gene, HCC: HCC (N = 15); for Target coverage, over-expression of source gene, OC: OC (N = 12); for Target coverage, over-expression of source gene, OSCAR: OSCAR (N = 11); for Target coverage, over-expression of source gene, PC: PC (N = 26); for Target coverage, over-expression of source gene, RCC: RCC (N = 10); for Target coverage, over-expression of source gene, SCLC: SCLC (N = 10); for Target coverage for source genes of selected peptides, GBC_CCC (N = 10): gallbladder adenocarcinoma and cholangiocarcinoma; for Target coverage for source genes of selected peptides, GBC_CCC (N = 10) / Target coverage for source genes of selected peptides, GC (N = 11) / Target coverage for source genes of selected peptides, HNSCC (N = 10) / Target coverage for source genes of selected peptides, MEL (N = 10) / Target coverage for source genes of selected peptides, NHL (N = 10) / Target coverage for source genes of selected peptides, PCA (n = 10) / Target coverage for source genes of selected peptides, UBC (N = 10) / Target coverage for source genes of selected peptides, UTC (N = 10): share of tumors with more than 1.5-fold higher expression than the highest-expressing relevant normal tissue, in-house RNAseq; for Target coverage for source genes of selected peptides, GC (N = 11): gastric cancer; for Target coverage for source genes of selected peptides, HNSCC (N = 10): head and neck small cell carcinoma; for Target coverage for source genes of selected peptides, MEL (N = 10): melanoma; for Target coverage for source genes of selected peptides, NHL (N = 10): non-Hodgkin lymphoma; for Target coverage, over-expression of source gene, pNSCLC: pNSCLC (N = 11); for Target coverage for source genes of selected peptides, PCA (n = 10): prostate cancer and benign prostate hyperplasia; for Target coverage for source genes of selected peptides, UBC (N = 10): urinary bladder cancer; for Target coverage for source genes of selected peptides, UTC (N = 10): uterine cancer
[2] = tested on: HLA-A*24 molecules of primary tumors; test: Identification and relative LC-MS quantitation of HLA-A*24 tumor-associated peptides presented on tissue samples (XPRESIDENT presentation profiles); parameters: species or system human; conditions: for ENTITIES: Table 9A: selected HLA-A*24-binding tumor-associated peptides, cancer entities on which the peptide was found presented; for Peptide Presentation on cancer entities: Table 9B: selected HLA-A*24 peptides, presentation on additional cancer entities
[3] = over-expression = more than 1.5-fold vs highest normal tissue
[4] = share of tumors with more than 1.5-fold higher expression than highest relevant normal tissue

Substance	Target coverage for source genes of selected peptides, GBC_CCC (N = 10) [1]	Target coverage for source genes of selected peptides, GC (N = 11) [1]	Target coverage for source genes of selected peptides, HNSCC (N = 10) [1]	Target coverage for source genes of selected peptides, MEL (N = 10) [1]	Target coverage for source genes of selected peptides, NHL (N = 10) [1]	Target coverage for source genes of selected peptides, PCA (n = 10) [1]	Target coverage for source genes of selected peptides, UBC (N = 10) [1]	Target coverage, over-expression of source gene, AML [1, 4]	Target coverage, over-expression of source gene, BRCA [1, 4]	Target coverage, over-expression of source gene, CLL [1, 4]	Target coverage, over-expression of source gene, CRC [1, 4]	Target coverage, over-expression of source gene, GB [1, 4]	Target coverage, over-expression of source gene, HCC [1, 4]	Target coverage, over-expression of source gene, OC [1, 4]	Target coverage, over-expression of source gene, OSCAR [1, 4]	Target coverage, over-expression of source gene, PC [1, 4]	Target coverage, over-expression of source gene, RCC [1, 4]	Target coverage, over-expression of source gene, SCLC [1, 4]	Target coverage, over-expression of source gene, pNSCLC [1, 4]	Peptide Presentation on cancer entities [2]	other results
113: peptide found in RIF1 (gene looked up) (IYSFHTLSF; listed as Homo sapiens) [compound 113]	I (<19% over-expression = I)	I (<19% over-expression = I)	II (20-49% = II)	I (<19% over-expression = I)	I (<19% over-expression = I)	I (<19% over-expression = I)	I (<19% over-expression = I)														Target coverage, over-expression of source gene, AML ([1]; over-expression = more than 1.5-fold higher expression on tumor vs highest-expressing relevant normal tissue): I (<19% over-expression = I); Target coverage, over-expression of source gene, BRCA [1, 3]: I (<19% over-expression = I); Target coverage, over-expression of source gene, CLL [1, 3]: I (<19% over-expression = I); Target coverage, over-expression of source gene, CRC [1, 3]: I (<19% over-expression = I); Target coverage, over-expression of source gene, GB [1, 3]: II (20-49% = II); Target coverage, over-expression of source gene, HCC [1, 3]: I (<19% over-expression = I); Target coverage, over-expression of source gene, OC [1, 3]: I (<19% over-expression = I); Target coverage, over-expression of source gene, OSCAR [1, 3]: I (<19% over-expression = I); Target coverage, over-expression of source gene, PC [1, 3]: I (<19% over-expression = I); Target coverage, over-expression of source gene, RCC [1, 3]: I (<19% over-expression = I); Target coverage, over-expression of source gene, SCLC [1, 3]: III (50-69% = III); Target coverage, over-expression of source gene, pNSCLC [1, 3]: I (<19% over-expression = I); Target coverage for source genes of selected peptides, UTC (N = 10) [1]: I (<19% over-expression = I); ENTITIES [2]: NSCLC, GC, GB
189: peptide found in TET2 (gene looked up) (AYFKQSSVF; listed as Homo sapiens) [compound 189]								II (20-49% = II)	I (<19% over-expression = I)	II (20-49% = II)	I (<19% over-expression = I)	I (<19% over-expression = I)	I (<19% over-expression = I)	I (<19% over-expression = I)	I (<19% over-expression = I)	I (<19% over-expression = I)	I (<19% over-expression = I)	I (<19% over-expression = I)	I (<19% over-expression = I)	NSCLC	
190: peptide found in TET2 (gene looked up) (LYSELTETL; listed as Homo sapiens) [compound 190]								IV (>70% = IV)	III (50-69% = III)	IV (>70% = IV)	I (<19% over-expression = I)	II (20-49% = II)	I (<19% over-expression = I)	I (<19% over-expression = I)	I (<19% over-expression = I)	II (20-49% = II)	I (<19% over-expression = I)	IV (>70% = IV)	IV (>70% = IV)	NSCLC	
204: peptide found in ARID2 (gene looked up) (EYLSTCSKL; listed as Homo sapiens) [compound 204]	I (<19% over-expression = I)	I (<19% over-expression = I)	II (20-49% = II)	I (<19% over-expression = I)	II (20-49% = II)	II (20-49% = II)	I (<19% over-expression = I)	II (20-49% = II)	II (20-49% = II)	I (<19% over-expression = I)	I (<19% over-expression = I)	I (<19% over-expression = I)	I (<19% over-expression = I)	II (20-49% = II)	I (<19% over-expression = I)	I (<19% over-expression = I)	I (<19% over-expression = I)	III (50-69% = III)	I (<19% over-expression = I)	PCA	Target coverage for source genes of selected peptides, UTC (N = 10) [1]: IV (>70% = IV); ENTITIES [2]: NSCLC, HCC
212: peptide found in SGK3 (gene looked up) (SYAPPSEDLF; listed as Homo sapiens) [compound 212]								I (<19% over-expression = I)	II (20-49% = II)	I (<19% over-expression = I)	I (<19% over-expression = I)	I (<19% over-expression = I)	I (<19% over-expression = I)	I (<19% over-expression = I)	I (<19% over-expression = I)	I (<19% over-expression = I)	I (<19% over-expression = I)	I (<19% over-expression = I)	I (<19% over-expression = I)	NSCLC	
213: peptide found in SGK3 (gene looked up) (SYAPPSEDLFL; listed as Homo sapiens) [compound 213]								I (<19% over-expression = I)	II (20-49% = II)	I (<19% over-expression = I)	I (<19% over-expression = I)	I (<19% over-expression = I)	I (<19% over-expression = I)	I (<19% over-expression = I)	I (<19% over-expression = I)	I (<19% over-expression = I)	I (<19% over-expression = I)	I (<19% over-expression = I)	I (<19% over-expression = I)	NSCLC	
